Experimental data: patent US7521429B2, “Avermectin B1 monosaccharide derivatives” (Merial Limited, priority 2003, dated 2009)
Some entries share one result that the patent states for a list of compounds.

Columns and labels:
Format in all cases: in vivo
Spodoptera littoralis [1] = experiment: Action against Spodoptera littoralis (spray on soybean plants); settings: 12.5 ppm spray on young soybean plants; 10 first-stage caterpillars; 3 days; vs untreated plants
Spodoptera littoralis [2] = experiment: Action against Spodoptera littoralis, systemic (maize seedlings); settings: systemic: maize seedlings in test solution 6 days, cut leaves infested with 12 to 15 L1 larvae; evaluated 4 days later
Heliothis virescens = experiment: Action against Heliothis virescens (eggs on filter paper); settings: 30-35 eggs 0 to 24 hours old on filter paper on artificial nutrient; 0.8 ml test solution; 6 days
Plutella xylostella = experiment: Action against Plutella xylostella caterpillars (spray on cabbage plants); settings: 12.5 ppm spray on young cabbage plants; 10 first-stage caterpillars; 3 days
[3] = tested on: Frankliniella occidentalis; experiment: Activity against Frankliniella occidentalis (bean leaf discs); settings: 12.5 ppm spray on bean leaf discs on agar; mixed population; 10 days
Diabrotica balteata = experiment: Action against Diabrotica balteata (spray on maize seedlings); settings: 12.5 ppm spray on maize seedlings; 10 second-stage larvae; 6 days
Tetranychus urticae = experiment: Action against Tetranychus urticae (spray on bean plants); settings: 12.5 ppm spray on young bean plants one day after infestation with mixed population; 6 days at 25° C.

CC[C@H](C)[C@H]1O[C@]2(C=C[C@@H]1C)C[C@@H]1C[C@@H](C/C=C(\C)[C@@H](O[C@H]3C[C@H](OC)[C@@H](OS(=O)(=O)N(COCCOC)COCCOC)[C@H](C)O3)[C@@H](C)/C=C/C=C3\CO[C@@H]4[C@H](O)C(C)=C[C@@H](C(=O)O1)[C@]34O)O2 [A.12]
more than 80%: percentage reduction in population and percentage reduction in feeding damage (% activity) (Spodoptera littoralis [1]) | percentage reduction in population (% activity) (Spodoptera littoralis [2]) | percentage reduction in population (% activity) (Heliothis virescens) | percentage reduction in population and percentage reduction in feeding damage (% activity) (Plutella xylostella) | reduction in percent (% activity) [3] | percentage reduction in population (% activity) (Diabrotica balteata) | percentage reduction in population (% activity) (Tetranychus urticae)

CC[C@H](C)[C@H]1O[C@]2(C=C[C@@H]1C)C[C@@H]1C[C@@H](C/C=C(\C)[C@@H](O[C@H]3C[C@H](OC)[C@H](OS(N)(=O)=O)[C@H](C)O3)[C@@H](C)/C=C/C=C3\CO[C@@H]4[C@H](O)C(C)=C[C@@H](C(=O)O1)[C@]34O)O2 [A.13]
more than 80%: percentage reduction in population and percentage reduction in feeding damage (% activity) (Spodoptera littoralis [1]) | percentage reduction in population (% activity) (Spodoptera littoralis [2]) | percentage reduction in population (% activity) (Heliothis virescens) | percentage reduction in population and percentage reduction in feeding damage (% activity) (Plutella xylostella) | reduction in percent (% activity) [3] | percentage reduction in population (% activity) (Diabrotica balteata) | percentage reduction in population (% activity) (Tetranychus urticae)

CC[C@H](C)[C@H]1O[C@]2(C=C[C@@H]1C)C[C@@H]1C[C@@H](C/C=C(\C)[C@@H](O[C@H]3C[C@H](OC)[C@@H](OS(N)(=O)=O)[C@H](C)O3)[C@@H](C)/C=C/C=C3\CO[C@@H]4[C@H](O)C(C)=C[C@@H](C(=O)O1)[C@]34O)O2 [A.1]
more than 80%: percentage reduction in population and percentage reduction in feeding damage (% activity) (Spodoptera littoralis [1]) | percentage reduction in population (% activity) (Spodoptera littoralis [2]) | percentage reduction in population (% activity) (Heliothis virescens) | percentage reduction in population and percentage reduction in feeding damage (% activity) (Plutella xylostella) | reduction in percent (% activity) [3] | percentage reduction in population (% activity) (Diabrotica balteata) | percentage reduction in population (% activity) (Tetranychus urticae)

CC[C@H](C)[C@H]1O[C@]2(C=C[C@@H]1C)C[C@@H]1C[C@@H](C/C=C(\C)[C@@H](O[C@H]3C[C@H](OC)[C@@H](OS(=O)(=O)NC(=O)C(C)C)[C@H](C)O3)[C@@H](C)/C=C/C=C3\CO[C@@H]4[C@H](O)C(C)=C[C@@H](C(=O)O1)[C@]34O)O2 [A.4]
more than 80%: percentage reduction in population and percentage reduction in feeding damage (% activity) (Spodoptera littoralis [1]) | percentage reduction in population (% activity) (Spodoptera littoralis [2]) | percentage reduction in population (% activity) (Heliothis virescens) | percentage reduction in population and percentage reduction in feeding damage (% activity) (Plutella xylostella) | reduction in percent (% activity) [3] | percentage reduction in population (% activity) (Diabrotica balteata) | percentage reduction in population (% activity) (Tetranychus urticae)

CC[C@H](C)[C@H]1O[C@]2(C=C[C@@H]1C)C[C@@H]1C[C@@H](C/C=C(\C)[C@@H](O[C@H]3C[C@H](OC)[C@H](OS(=O)(=O)NC(=O)CC(C)C)[C@H](C)O3)[C@@H](C)/C=C/C=C3\CO[C@@H]4[C@H](O)C(C)=C[C@@H](C(=O)O1)[C@]34O)O2 [A.16]
more than 80%: percentage reduction in population and percentage reduction in feeding damage (% activity) (Spodoptera littoralis [1]) | percentage reduction in population (% activity) (Spodoptera littoralis [2]) | percentage reduction in population (% activity) (Heliothis virescens) | percentage reduction in population and percentage reduction in feeding damage (% activity) (Plutella xylostella) | reduction in percent (% activity) [3] | percentage reduction in population (% activity) (Diabrotica balteata) | percentage reduction in population (% activity) (Tetranychus urticae)

CC[C@H](C)[C@H]1O[C@]2(C=C[C@@H]1C)C[C@@H]1C[C@@H](C/C=C(\C)[C@@H](O[C@H]3C[C@H](OC)[C@@H](OS(=O)(=O)NC(C)=O)[C@H](C)O3)[C@@H](C)/C=C/C=C3\CO[C@@H]4[C@H](O)C(C)=C[C@@H](C(=O)O1)[C@]34O)O2 [A.2]
more than 80%: percentage reduction in population and percentage reduction in feeding damage (% activity) (Spodoptera littoralis [1]) | percentage reduction in population (% activity) (Spodoptera littoralis [2]) | percentage reduction in population (% activity) (Heliothis virescens) | percentage reduction in population and percentage reduction in feeding damage (% activity) (Plutella xylostella) | reduction in percent (% activity) [3] | percentage reduction in population (% activity) (Diabrotica balteata) | percentage reduction in population (% activity) (Tetranychus urticae)
